{
  "source": "the supplement of paper PMC4604168 (melanoma cell lines)",
  "note": "The other results are listed elsewhere or left out. Single values are uncertain, as repeats are few or missing.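 Imaging used 1,536-well plates; nuclei positive for cleaved PARP by antibody were divided by total DNA-stained nuclei to yield the apoptosis fraction. Doses for screening kept most cells viable, and cell lines differ markedly in resting and induced cleaved-PARP levels.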",
  "data": [
    {"system": "RVH-421", "assay": "cleaved PARP positive nuclei fraction relative to DMSO control; melanoma cells; higher = more apoptosis", "details": "library dose: low library concentration; 72 h", "units": {"cleaved PARP positive nuclei fraction": "%"}, "values": [
      {"molecule": "C=CCn1c(=O)c2cnc(Nc3ccc(N4CCN(C)CC4)cc3)nc2n1-c1cccc(C(C)(C)O)n1", "note": "+ O=S(=O)(c1ccccc1)N(CC(F)(F)F)c1ccc(C(O)(C(F)(F)F)C(F)(F)F)cc1 [T0901317] (first compound 0.02 µM, partner dose 1.4 µM)", "cleaved PARP positive nuclei fraction": 101},
      {"molecule": "CC(C)(C)c1cnc(CSc2cnc(NC(=O)C3CCNCC3)s2)o1", "note": "+ c1cc(-c2cnn3cc(-c4ccc(OCCN5CCCCC5)cc4)cnc23)ccn1 [Dorsomorphin] (first compound 0.01 µM, partner dose 0.4 µM)", "cleaved PARP positive nuclei fraction": 99.5},
      {"molecule": "O=C(CCCCCCC(=O)Nc1ccccc1)NO", "note": "[vorinostat] + O=S(=O)(c1ccccc1)N(CC(F)(F)F)c1ccc(C(O)(C(F)(F)F)C(F)(F)F)cc1 [T0901317] (first compound 0.08 µM, partner dose 1.4 µM)", "cleaved PARP positive nuclei fraction": 83.4},
      {"molecule": "Cn1c(Nc2ccc(C(F)(F)F)cc2)nc2cc(Oc3ccnc(-c4ncc(C(F)(F)F)[nH]4)c3)ccc21", "note": "+ COC(=O)c1sccc1S(=O)(=O)Nc1ccc(Nc2ccccc2)cc1OC [GSK0660] (first compound 0.08 µM, partner dose 1 µM)", "cleaved PARP positive nuclei fraction": 217},
      {"molecule": "C#Cc1cccc(Nc2ncnc3cc(OCCOC)c(OCCOC)cc23)c1", "note": "[erlotinib] + O=C(Nc1ccccc1)c1cc([N+](=O)[O-])ccc1Cl [GW9662] (first compound 0.8 µM, partner dose 2 µM)", "cleaved PARP positive nuclei fraction": 26.4},
      {"molecule": "Cc1cc(N2CCOCC2)cc2[nH]c(-c3c(NC[C@@H](O)c4cccc(Cl)c4)cc[nH]c3=O)nc12", "note": "+ O=C(O)C(=O)Nc1sc2c(c1C(=O)O)CCNC2 [TCS401] (first compound 0.2 µM, partner dose 1.66667 µM)", "cleaved PARP positive nuclei fraction": 13.7},
      {"molecule": "Nc1cccc2c1CN(C1CCC(=O)NC1=O)C2=O", "note": "(stereo not drawn) [lenalidomide] + Oc1nc(-c2ccc(C(F)(F)F)cc2)nc2c1CSCC2 [XAV939] (first compound 1 µM, partner dose 2 µM)", "cleaved PARP positive nuclei fraction": 94.5},
      {"molecule": "Cn1c(Nc2ccc(C(F)(F)F)cc2)nc2cc(Oc3ccnc(-c4ncc(C(F)(F)F)[nH]4)c3)ccc21", "note": "+ COc1ccc(COc2ccc(Cc3cnc(N)nc3N)cc2OC)cc1 [GW2580] (first compound 0.08 µM, partner dose 1 µM)", "cleaved PARP positive nuclei fraction": 126},
      {"molecule": "C[C@]1(c2nc3c(C(N)=O)cccc3[nH]2)CCCN1", "note": "[Veliparib] + CC(C)CCN1c2nc(Nc3cc(F)c(O)c(F)c3)ncc2N(C)C(=O)C1C [BID1870] (first compound 1.4 µM, partner dose 0.2 µM)", "cleaved PARP positive nuclei fraction": 36.1},
      {"molecule": "C=CCn1c(=O)c2cnc(Nc3ccc(N4CCN(C)CC4)cc3)nc2n1-c1cccc(C(C)(C)O)n1", "note": "+ CCc1ccc(CCOc2ccc(CC3SC(=O)NC3=O)cc2)nc1 [pioglitazone] (first compound 0.02 µM, partner dose 2 µM)", "cleaved PARP positive nuclei fraction": 66.1},
      {"molecule": "C=CCn1c(=O)c2cnc(Nc3ccc(N4CCN(C)CC4)cc3)nc2n1-c1cccc(C(C)(C)O)n1", "note": "+ COC(=O)c1sccc1S(=O)(=O)Nc1ccc(Nc2ccccc2)cc1OC [GSK0660] (first compound 0.02 µM, partner dose 1 µM)", "cleaved PARP positive nuclei fraction": 96.6},
      {"molecule": "C#Cc1cccc(Nc2ncnc3cc(OCCOC)c(OCCOC)cc23)c1", "note": "[erlotinib] + COc1ccc2c(c1)CCC1C2CCC2(C)C(NCCCCCCN3C(=O)C=CC3=O)CCC12 [U73122] (first compound 0.8 µM, partner dose 0.4 µM)", "cleaved PARP positive nuclei fraction": 140},
      {"molecule": "C=CCn1c(=O)c2cnc(Nc3ccc(N4CCN(C)CC4)cc3)nc2n1-c1cccc(C(C)(C)O)n1", "note": "+ O=C1NC(=O)/C(=C/c2ccc(-c3ccc(F)cc3O)o2)S1 [AS252424] (first compound 0.02 µM, partner dose 1 µM)", "cleaved PARP positive nuclei fraction": 65.8},
      {"molecule": "CC1(C)NC(=O)N(c2ccc([N+](=O)[O-])c(C(F)(F)F)c2)C1=O", "note": "[nilutamide] + COc1ccc(-c2ccc3c(N4CCOCC4)nc(N4C[C@@H](C)O[C@@H](C)C4)nc3n2)cc1CO [KU0063794] (first compound 1 µM, partner dose 0.02 µM)", "cleaved PARP positive nuclei fraction": 58},
      {"molecule": "CC(C)(C)c1cnc(CSc2cnc(NC(=O)C3CCNCC3)s2)o1", "note": "+ Oc1nc(-c2ccc(C(F)(F)F)cc2)nc2c1CSCC2 [XAV939] (first compound 0.01 µM, partner dose 2 µM)", "cleaved PARP positive nuclei fraction": 49.6},
      {"molecule": "COCC[n+]1c2c(n(Cc3cnccn3)c1C)C(=O)c1ccccc1C2=O", "note": "+ COc1ccc(COc2ccc(Cc3cnc(N)nc3N)cc2OC)cc1 [GW2580] (first compound 0.0004 µM, partner dose 1 µM)", "cleaved PARP positive nuclei fraction": 77.7},
      {"molecule": "Nc1cccc2c1CN(C1CCC(=O)NC1=O)C2=O", "note": "(stereo not drawn) [lenalidomide] + COc1cc2ncnc(Nc3ccc(Oc4ccccc4)cc3)c2cc1OC [SrcI1] (first compound 1 µM, partner dose 2 µM)", "cleaved PARP positive nuclei fraction": 53.5},
      {"molecule": "CO[C@@H]1[C@H](N(C)C(=O)c2ccccc2)C[C@H]2O[C@]1(C)n1c3ccccc3c3c4c(c5c6ccccc6n2c5c31)C(=O)NC4", "note": "[Midostaurin] + COc1ccc2c(c1)CCC1C2CCC2(C)C(NCCCCCCN3C(=O)C=CC3=O)CCC12 [U73122] (first compound 0.08 µM, partner dose 0.4 µM)", "cleaved PARP positive nuclei fraction": 38}
    ]}
  ]
}
